Results reported in patent publication US20100216749A1, “Combination Therapy for Neuroprotection” (S.H. PHARMA., LTD, priority 2007, published 2010).
At least one compound was matched to its structure with a doubt left.

System: middle cerebral artery occlusion (MCAO) stroke animal model
Assay: Cerebral infarction volume by TTC staining of brain sections after 1 h MCAO/reperfusion
Assay type: in vivo, rat
Conditions: i.v. 10 mg/kg each versus 5 mg/kg, 6 hours after reperfusion (FIG. 23)

CNCCC(Oc1ccc(C(F)(F)F)cc1)c1ccccc1 (stereo not shown) [fluoxetine chloride, N-methyl-[4-(trifluoromethyl)phenoxy]benzenepropaneamine]
infarction inhibiting effect when concentration increased: the effect was not increased
